The source of these data is paper PMC10491636.

The chains behind the UniProt entries cited, without tags or fusion partners. Where a name states a change or a piece, a line headed by the entry shows the natural chain unless it says otherwise.
UniProt P40763: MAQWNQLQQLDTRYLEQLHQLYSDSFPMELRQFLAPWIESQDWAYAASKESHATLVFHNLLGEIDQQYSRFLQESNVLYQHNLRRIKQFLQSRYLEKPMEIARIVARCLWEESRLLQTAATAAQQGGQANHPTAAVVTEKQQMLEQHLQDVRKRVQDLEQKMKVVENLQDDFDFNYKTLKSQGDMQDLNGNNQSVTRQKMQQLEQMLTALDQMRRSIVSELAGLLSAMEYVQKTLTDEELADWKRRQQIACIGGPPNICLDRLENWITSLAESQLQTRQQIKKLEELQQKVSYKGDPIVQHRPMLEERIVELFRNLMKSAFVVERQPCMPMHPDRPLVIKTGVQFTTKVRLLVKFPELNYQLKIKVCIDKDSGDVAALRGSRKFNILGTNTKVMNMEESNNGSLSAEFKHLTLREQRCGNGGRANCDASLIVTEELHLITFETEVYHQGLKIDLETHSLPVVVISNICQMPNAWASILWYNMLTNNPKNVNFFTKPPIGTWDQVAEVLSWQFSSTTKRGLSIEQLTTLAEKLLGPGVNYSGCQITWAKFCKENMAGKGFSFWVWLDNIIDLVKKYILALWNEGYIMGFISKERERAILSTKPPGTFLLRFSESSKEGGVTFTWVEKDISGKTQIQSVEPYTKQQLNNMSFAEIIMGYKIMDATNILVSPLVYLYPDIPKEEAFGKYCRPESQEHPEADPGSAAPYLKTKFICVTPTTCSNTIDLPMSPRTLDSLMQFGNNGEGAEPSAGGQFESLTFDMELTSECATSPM
UniProt P16070: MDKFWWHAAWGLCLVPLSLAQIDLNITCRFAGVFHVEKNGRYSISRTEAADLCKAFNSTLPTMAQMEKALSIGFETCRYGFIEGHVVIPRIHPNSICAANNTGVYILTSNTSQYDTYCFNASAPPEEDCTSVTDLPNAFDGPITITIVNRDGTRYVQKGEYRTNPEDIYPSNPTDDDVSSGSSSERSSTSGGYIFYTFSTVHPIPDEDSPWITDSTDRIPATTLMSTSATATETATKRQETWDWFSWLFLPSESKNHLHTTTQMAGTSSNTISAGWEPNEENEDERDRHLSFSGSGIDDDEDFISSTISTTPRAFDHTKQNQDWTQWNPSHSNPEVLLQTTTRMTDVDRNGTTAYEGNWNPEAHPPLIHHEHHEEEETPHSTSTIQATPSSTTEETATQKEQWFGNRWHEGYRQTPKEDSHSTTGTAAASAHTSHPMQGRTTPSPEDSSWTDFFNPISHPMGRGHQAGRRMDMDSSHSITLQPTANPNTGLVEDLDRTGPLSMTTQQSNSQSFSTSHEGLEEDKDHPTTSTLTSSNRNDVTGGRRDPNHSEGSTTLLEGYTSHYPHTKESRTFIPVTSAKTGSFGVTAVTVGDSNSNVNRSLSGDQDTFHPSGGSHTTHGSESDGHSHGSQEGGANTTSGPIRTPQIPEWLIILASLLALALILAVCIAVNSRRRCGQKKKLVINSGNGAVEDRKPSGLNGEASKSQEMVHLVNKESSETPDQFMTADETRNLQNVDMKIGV
UniProt Q14457: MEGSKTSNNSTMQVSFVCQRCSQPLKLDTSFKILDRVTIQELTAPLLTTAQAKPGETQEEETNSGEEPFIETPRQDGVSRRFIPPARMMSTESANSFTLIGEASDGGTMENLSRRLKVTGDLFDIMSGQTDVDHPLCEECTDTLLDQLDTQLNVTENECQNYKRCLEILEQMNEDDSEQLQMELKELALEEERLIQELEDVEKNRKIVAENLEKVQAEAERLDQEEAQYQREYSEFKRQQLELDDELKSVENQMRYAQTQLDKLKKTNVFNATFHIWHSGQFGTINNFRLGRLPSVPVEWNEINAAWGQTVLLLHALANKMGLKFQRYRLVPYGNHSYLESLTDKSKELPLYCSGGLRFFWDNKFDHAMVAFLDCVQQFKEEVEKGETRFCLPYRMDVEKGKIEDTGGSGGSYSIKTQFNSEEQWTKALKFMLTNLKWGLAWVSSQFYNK
UniProt Q6ZNE5: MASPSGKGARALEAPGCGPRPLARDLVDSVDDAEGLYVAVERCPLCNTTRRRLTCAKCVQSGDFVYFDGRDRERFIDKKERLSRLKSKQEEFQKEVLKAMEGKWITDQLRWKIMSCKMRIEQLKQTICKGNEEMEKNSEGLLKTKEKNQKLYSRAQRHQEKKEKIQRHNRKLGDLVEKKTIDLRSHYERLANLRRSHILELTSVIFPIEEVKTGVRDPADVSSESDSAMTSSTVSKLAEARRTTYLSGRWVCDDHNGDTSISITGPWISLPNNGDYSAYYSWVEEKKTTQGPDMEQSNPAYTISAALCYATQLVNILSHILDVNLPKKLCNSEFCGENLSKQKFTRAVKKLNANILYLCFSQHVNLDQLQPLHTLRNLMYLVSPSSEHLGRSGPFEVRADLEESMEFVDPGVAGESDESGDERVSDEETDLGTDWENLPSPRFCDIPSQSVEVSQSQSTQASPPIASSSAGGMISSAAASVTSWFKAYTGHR

Results are given in words; binding and its absence hold for the method and conditions named. Binding can be weak; no strength is given. For some of these results: Binding seen in cells or lysates may run through a third protein.

Test [1] deals with BD-STAT3 (STAT3 in pGBKT7, two-hybrid bait) (UniProt P40763). Nature of the test: two-hybrid; yeast strain AH109 co-transformed with bait (pGBKT7) and prey (pGADT7); growth on SD-Leu-Trp-Ade-His with X-α-gal.
For test [2], the target named is CD44 intracellular domain (CD44ICD), 3xFlag (DDK) tagged (human) (UniProt P16070). In words: co-IP; HUVECs transduced with DDK(3xFlag)-tagged CD44ICD construct; lysis in IP buffer (pH 7.5, 20 mM Tris, 137 mM NaCl, 1% NP-40, 5% glycerol); anti-DDK or IgG overnight at 4 °C, protein A/G agarose; western blot. In general terms: A western blot detects proteins with antibodies after separation by electrophoresis.

Regarding “pGADT7-CD44ICD (CD44ICD fused to the Gal4 activation domain, two-hybrid prey) (from UniProt P16070-12) (domain or fragment)”, the binding result in test [1] is “binds”. In the case of “STAT3 (signal transducer and activator of transcription 3), endogenous (from UniProt P40763 1-770)”, the binding result in test [2] was “binds”. Regarding “BECN1, endogenous (from UniProt Q14457 1-450)”, the binding entry in test [2] is on record as “no binding”. For the substance “autophagy-related protein 14-like protein (Atg14L), endogenous (from UniProt Q6ZNE5 1-492)”, the binding result in test [2] was “no binding”.
